Source: publication PMC7156724, “Potent BRD4 inhibitor suppresses cancer cell-macrophage interaction” (Nature Communications, 2020)

Assays:
Conditions in all cases: in % (unit assumed)
[1] = Metabolic stability assay, dog liver microsomes
Description: (§1) 7. Metabolic stability assay. The metabolic profile of NHWD-870 was determined using mouse, rat, dog, monkey, and human liver microsomes using the protocols […]
(§2) No. Compound ID Exat Mass Stock Conc.
(§3) 1) 100 mM potassium phosphate buffer, PH7.4; 2) 10mM MgCI2
(§4) 1) Intermediate solution: Dilute 5 μL of compound or control from stock solution (10 mM) with 45 uL DMSO,then mixed with 450 μL 1:1 Methanol/Water (Conc.: 10 0 […]
(§5) 2) Working solution: Dilute 50 μL from intermediate solution with 450 μL 100 mM potassium phosphate buffer (Conc.: 10 μM, 4.5%MeOH)
(§6) (3) NADPH regenerating system (final Isocitric dehydrogenase conc.= 1 unit/mL at […]
(§7) 1) β-Nicotinamide adenine dinucleotide phosphate, Vendor: sigma Cat. No. N0505
(§8) 2) Isocitric acid, Vendor: Sigma Cat. No. I1252
(§9) 3) Isocitric dehydrogenase, Vendor: sigma Cat. No. I2002
(§10) (4) Liver microsome solution preparation (final concentration o f 0.5 mg protein/mL) […]
(§11) Cold ACN including 100 ng/mL Tolbutamide and 100 ng/mL Labetalol as internal […]
(§12) 1) Add 10 μL compound or control working solution/well to all plates (T0, T5, T10, T20, T30, T60, NCF60) except matrix blank.
(§13) 2) Dispense 680 μL/well microsome solution to 96-well plate as reserv oir according to […]
(§14) plate map. Then add 80 μL/well to every plate by Apricot, incubate the mixture of microsome solution and compound at 37℃ for about 10 min.
(§15) 3) Add 10 μL 100 mM potassium phosphate buffer/well to NCF60, incubate at 37℃, […]
(§16) 4) After pre-warming, dispense 90 μL/well NADPH regenerating system to 96-well plate as reservoir according to the plate map. Then add 10 μL/well to every plate by Apricot to start reaction.
(§17) 5) Incubate at 37℃, start timer 2.
(§18) 6) Add 300 (μL/well) stop solution (cold in 4℃, including 100 ng/mL Tolbutamide and 100 ng/mL Labetalol) to terminate the reaction.
(§19) 7) The sampling plates are shaked for approx 10 min.
(§20) 8) Samples are centrifuged at 4000 rpm for 20 min under 4℃.
(§21) 9) While centrifuging, load 8×new 96-well plate with 300 μL HPLC water, then transfer 100 μL supernatant, mixed for LC/MS/MS.
(§22) Use equation of first order kinetics to calculate t1/2 and Clin t(mic): […]
(§23) Equation of first order kinetics: […]

[2] = Metabolic stability assay, mouse liver microsomes
Description: as §1, §2, §3, §4, §5, §6, §7, §8, §9, §10, §11, §12, §13, §14, §15, §16, §17, §18, §19, §20, §21, §22, §23

[3] = Metabolic stability assay, rat liver microsomes
Description: as §1, §2, §3, §4, §5, §6, §7, §8, §9, §10, §11, §12, §13, §14, §15, §16, §17, §18, §19, §20, §21, §22, §23

[4] = Metabolic stability assay, monkey liver microsomes
Description: as §1, §2, §3, §4, §5, §6, §7, §8, §9, §10, §11, §12, §13, §14, §15, §16, §17, §18, §19, §20, §21, §22, §23

[5] = Metabolic stability assay, human liver microsomes
Description: as §1, §2, §3, §4, §5, §6, §7, §8, §9, §10, §11, §12, §13, §14, §15, §16, §17, §18, §19, §20, §21, §22, §23

Compound: CCCNCC(O)COc1ccccc1C(=O)CCc1ccccc1 (stereo not drawn) [Propafenone]
- Remaining in Dog liver microsomes (Sup Fig.6c) ([1]; time 0): 100
- Remaining in Dog liver microsomes (Sup Fig.6c) ([1]; time 5): 0.263
- Remaining in Dog liver microsomes (Sup Fig.6c) ([1]; time 10): 0.176
- Remaining in Dog liver microsomes (Sup Fig.6c) ([1]; time 20): 0.237
- Remaining in Dog liver microsomes (Sup Fig.6c) ([1]; time 30): 0.192
- Remaining in Dog liver microsomes (Sup Fig.6c) ([1]; time 60): 0.169
- Remaining in mouse liver microsomes (Sup Fig.6a) ([2]; time 0): 100
- Remaining in mouse liver microsomes (Sup Fig.6a) ([2]; time 5): 9.879
- Remaining in mouse liver microsomes (Sup Fig.6a) ([2]; time 10): 0.346
- Remaining in mouse liver microsomes (Sup Fig.6a) ([2]; time 20): 0.055
- Remaining in mouse liver microsomes (Sup Fig.6a) ([2]; time 30): 0.045
- Remaining in mouse liver microsomes (Sup Fig.6a) ([2]; time 60): 0
- Remaining in rat liver microsomes (Sup Fig.6b) ([3]; time 0): 100
- Remaining in rat liver microsomes (Sup Fig.6b) ([3]; time 5): 17.074
- Remaining in rat liver microsomes (Sup Fig.6b) ([3]; time 10): 2.145
- Remaining in rat liver microsomes (Sup Fig.6b) ([3]; time 20): 0.167
- Remaining in rat liver microsomes (Sup Fig.6b) ([3]; time 30): 0.05
- Remaining in rat liver microsomes (Sup Fig.6b) ([3]; time 60): 0
- Remaining in Monkey liver microsomes (Sup Fig.6d) ([4]; time 0): 100
- Remaining in Monkey liver microsomes (Sup Fig.6d) ([4]; time 5): 64.476
- Remaining in Monkey liver microsomes (Sup Fig.6d) ([4]; time 10): 46.872
- Remaining in Monkey liver microsomes (Sup Fig.6d) ([4]; time 20): 23.235
- Remaining in Monkey liver microsomes (Sup Fig.6d) ([4]; time 30): 5.35
- Remaining in Monkey liver microsomes (Sup Fig.6d) ([4]; time 60): 0.343
- Remaining in Human liver microsomes (Sup Fig.6e) ([5]; time 0): 100
- Remaining in Human liver microsomes (Sup Fig.6e) ([5]; time 5): 82.99
- Remaining in Human liver microsomes (Sup Fig.6e) ([5]; time 10): 64.782
- Remaining in Human liver microsomes (Sup Fig.6e) ([5]; time 20): 40.862
- Remaining in Human liver microsomes (Sup Fig.6e) ([5]; time 30): 13.966
- Remaining in Human liver microsomes (Sup Fig.6e) ([5]; time 60): 0.093
